The AC50 is the midpoint of the concentration-response curve, whichever way the signal moves. Read a high AC50 as weaker potency.

The list shows a part of the results. Further columns of the screen follow, without active or inactive calls. Most of these compounds were active or inconclusive in the main read-out, so they are no random draw. The note in brackets gives the kind of curve behind each potency; many fits are weak.

In PubChem BioAssay AID2685 (National Center for Advancing Translational Sciences (NCATS), 2010) one finds cell number change and AC50 data, which are given here for 38 compounds.

The nature of this assay: qHTS Assay for Lipid Storage Modulators in Drosophila S3 Cells.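 On cell number change: cells counted by Cell Tracker Red CMTPX staining in the red channel.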 As to conditions: BODIPY lipid droplet fluorescence, 18-24 h; for cell number change: measured here: cell count max response, cells fed with added oleic acid. A digest of the protocol: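 Drosophila S3 cells got compounds at several concentrations plus oleic acid (400 uM solution). Laser-scanning cytometry with 488 nm excitation read lipid droplets at 500-530 nm and cells at 575-640 nm. Percent activity was relative to 20 uM Triacsin C.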

[1] abbreviates: measured here: lipid fluorescence (Fed channel) AC50, cells fed with added oleic acid.
Setting [2] is: measured here: cell number channel AC50, cells fed with added oleic acid.

In the case of `Cc1ccc(CN2CCC(n3nccc3NC(=O)C3CCOC3)CC2)cc1C` (stereo not given), the cell number change turned out to be 3.5%.

Turning to `Cc1cc(=O)[nH]c(N/N=C/c2ccc(OC(=O)c3ccco3)cc2)n1`, the cell number change was -23.6%. For the same compound, the AC50 under setting [1] was 1.03 µM [falling, partial curve].

For the compound `COc1cc(/C=N/NC(=O)c2cc(C)oc2C)ccc1O`, the cell number change amounted to 4.07%. For the same compound, the AC50 under setting [1] is 0.00411 µM [rising, full curve, poor fit].

Regarding `COc1ccc(OCC(=O)NNC(=O)c2cc3ccccc3o2)cc1`, the concentration at half-maximal activity (AC50) under setting [1] is 23.1 µM [rising, single point].

Turning to `Cn1nnnc1SCC(=O)Nc1cc(S(=O)(=O)N2CCCC2)ccc1Cl`, the cell number change was determined as 38.1%.

In the case of `Cc1nonc1OCCNc1ccc([N+](=O)[O-])cc1[N+](=O)[O-]`, the cell number change was 13%. Further, under setting [2], the AC50 was 3.26 µM [falling, single point]. Besides, the half-maximal activity concentration (AC50) under setting [1] is 6.51 µM [falling, single point].

As for `CCOc1cc(Cl)c(S(=O)(=O)NCc2cccnc2)cc1Cl`, under setting [2], the AC50 was 0.651 µM [falling, single point].

In the case of `CCCCNC(=O)CSc1nnc(-c2ccco2)n1C`, the cell number change turned out to be 13.5%. In addition, the half-maximal activity concentration (AC50) under setting [2] is 6.51 µM [rising, single point].

Consider `CC(NC(=O)C12CC3CC(CC(C3)C1)C2)c1ccc2c(c1)OCCO2` (stereo not given), for which the cell number change is -97.1%. Besides, under setting [2], the AC50 is 25.9 µM [falling, partial curve, poor fit]. Moreover, the half-maximal activity concentration (AC50) under setting [1] is 0.651 µM [falling, partial curve, poor fit].

Turning to `Cc1ccc(CN2C(=O)/C(=C\c3ccc(C(=O)NCc4cccnc4)cc3)Oc3ccccc32)cc1`, the cell number change is -39.6%. In addition, the AC50 under setting [2] is 18.4 µM [falling, partial curve]. Moreover, under setting [1], the half-maximal activity concentration (AC50) was 14.6 µM [falling, partial curve].

In the case of `CCCCOC(=O)Nc1nnc(CC)s1`, the cell number change was found to be 58.6%. In addition, the concentration at half-maximal activity (AC50) under setting [2] was 18.4 µM [rising, single point].

Regarding `CCCCCc1ccc(-c2cn(Cc3ccc([N+](=O)[O-])cc3)nn2)cc1`, the AC50 under setting [1] was 2.91 µM [rising, single point].

As for `Cc1c(CCC(=O)NCC(=O)NCC(=O)O)c(=O)oc2cc3oc4c(c3cc12)CCCC4`, the cell number change is -17.1%. Under setting [1], the AC50 was 29.1 µM [falling, single point].

In the case of `Clc1ccsc1-c1csc(-c2cccnc2)n1`, the half-maximal activity concentration (AC50) is, setting by setting: under setting [2], 2.59 µM [rising, partial curve]; under setting [1], 4.61 µM [rising, full curve].

Consider `O=C(C1CCN(S(=O)(=O)c2ccccc2)CC1)N1CCN(Cc2ccc3c(c2)OCO3)CC1`, for which the cell number change came to 19.8%. Further, the AC50 under setting [2] was 7.31 µM [rising, partial curve, poor fit].

For `C[C@@H]1O[C@@H](O[C@H]2[C@H](O)[C@@H](O)[C@H](Oc3c(-c4ccc(O)c(O)c4)oc4cc(O)cc(O)c4c3=O)O[C@@H]2CO)[C@H](O)[C@H](O)[C@H]1O`, the cell number change was found to be 14.1%. In addition, the half-maximal activity concentration (AC50) under setting [1] was 0.116 µM [falling, full curve, poor fit].

Turning to `CCN(CC(=O)Nc1ccccc1C(F)(F)F)C(=O)C1CCC1`, the cell number change is -18.7%. For the same compound, under setting [1], the AC50 is 0.103 µM [falling, full curve].

As to `CC(C)OCCCN(C)C1CCN(S(=O)(=O)c2ccc(-c3cc(C(F)(F)F)no3)s2)CC1`, the cell number change was 4.94%.

Turning to `COc1ccc([C@H]2CC(=O)C=C(c3ccc(OC)nc3)C2)cc1`, the cell number change was -14.4%. Moreover, the half-maximal activity concentration (AC50) under setting [1] is 5.17 µM [falling, single point].

Take `O=C(Nc1nnc(-c2ccc(F)cc2)o1)C1CCCN1S(=O)(=O)c1cccs1` (stereo not given): the cell number change was -24.5%.

Regarding `COC(=O)c1ccc(CSc2nc3cc(Cl)ccc3s2)o1`, the cell number change was -12%.

On to `Brc1ccc2[nH]c3c(NCc4ccccn4)ncnc3c2c1`, for which the cell number change was -14.8%.

For the compound `CN(C)c1ccc(-c2nc3cc(N)ccc3o2)cc1`, the cell number change is -36.8%. The concentration at half-maximal activity (AC50) under setting [2] was 25.9 µM [falling, partial curve, poor fit]. For the same compound, under setting [1], the AC50 is 7.31 µM [falling, single point].

Consider `COc1ccc(CC(=O)Nc2ccc(-c3nnc(-c4ccccc4)o3)cc2)cc1`, for which, under setting [1], the concentration at half-maximal activity (AC50) was 6.51 µM [falling, single point].

Regarding `C/C(=N/OCC(=O)NCCCCCCNC(=O)CO/N=C(/C)c1cccs1)c1cccs1`, the cell number change was -50%. The AC50 under setting [2] is 2.06 µM [rising, partial curve]. The AC50 under setting [1] is 0.116 µM [rising, full curve, poor fit].

On to `Cc1cc(Br)ccc1NC(=O)CN(C)C(=O)c1cc([N+](=O)[O-])ccc1N1CCOCC1`, for which the cell number change was -14.1%.

Regarding `Cc1cc(S(=O)(=O)NC2CCCCC2)ccc1OCC(=O)NCc1cccnc1`, under setting [2], the concentration at half-maximal activity (AC50) was 3.26 µM [rising, partial curve].

On to `CC1CCN(C(=O)CSc2ccc(-c3ccc4c(c3)OCCO4)nn2)CC1`, for which the cell number change worked out at 20.5%. Moreover, under setting [2], the AC50 was 6.51 µM [rising, single point]. Further, the AC50 under setting [1] is 5.17 µM [falling, single point].

For the compound `CCOc1ccc(N(C)Cc2cc(=O)oc3ccc(OCC)cc23)cc1`, the cell number change was -23.9%. Further, the AC50 under setting [1] was 0.651 µM [rising, partial curve, poor fit].

As for `O=C(CN(c1cccc(Cl)c1)S(=O)(=O)c1ccccc1)NN=C1CCCC1`, the cell number change came to 2.04%. Besides, the AC50 under setting [1] was 0.411 µM [rising, full curve, poor fit].

As to `CC(C)Oc1ccc(S(=O)(=O)N2CCCCC2)cc1NC(=O)CN1C(=O)NC(C)(c2ccccc2)C1=O` (stereo not given), the cell number change was found to be 0.232%. The half-maximal activity concentration (AC50) under setting [1] is 35.5 µM [rising, single point].

Regarding `CC(=C/c1ccccc1)/C=N/N1CCN(Cc2ccc(C)cc2)CC1`, the cell number change was -32.9%. Besides, the AC50 under setting [2] was 29.1 µM [falling, single point]. Under setting [1], the AC50 is 29.1 µM [falling, single point].

On to `Cc1nc2ccc(NC(=O)N(C)c3ccccc3)cc2s1`, for which the cell number change is 18.8%. Moreover, the half-maximal activity concentration (AC50) under setting [1] was 4.61 µM [rising, partial curve].

For `COc1cccc(/C=C/C(=O)OCC(=O)NCc2ccc(Cl)cc2)c1`, the cell number change worked out at 15.6%. Further, the AC50 under setting [1] is 0.0291 µM [falling, full curve].

On to `O=C(NCC1CCCO1)c1cc(-c2ccc(F)cc2)no1` (stereo not given), for which the cell number change stood at 7.37%. Besides, the AC50 under setting [1] was 29.1 µM [rising, single point].

Regarding `O=c1[nH]c(SCc2ccccc2Cl)nc2[nH]ncc12`, the cell number change is -15.2%.

For the compound `C=CCn1c(SCn2nnc3ccccc3c2=O)nnc1-c1ccc(Cl)cc1`, the AC50 under setting [2] is 0.231 µM [rising, full curve, poor fit] and the concentration at half-maximal activity (AC50) under setting [1] is 0.461 µM [rising, full curve].

For `CC(OC(=O)c1ccccc1)C(=O)NCCC1=CCCCC1` (stereo not given), the cell number change is -27.1%. Besides, under setting [1], the AC50 is 4.61 µM [falling, single point].
